In PMC6123693:
Results are given in words; binding and its absence hold for the method and conditions named. Binding seen in cells or lysates may run through a third protein. Some binding calls cover weakened binding; strength is not graded here. Tags and fused reporters may be left off the sequences shown.

Sequences of proteins named here, by UniProt entry; tags and fusion partners are left off. Residues count along the entry.
UniProt P36894, residues 24-532: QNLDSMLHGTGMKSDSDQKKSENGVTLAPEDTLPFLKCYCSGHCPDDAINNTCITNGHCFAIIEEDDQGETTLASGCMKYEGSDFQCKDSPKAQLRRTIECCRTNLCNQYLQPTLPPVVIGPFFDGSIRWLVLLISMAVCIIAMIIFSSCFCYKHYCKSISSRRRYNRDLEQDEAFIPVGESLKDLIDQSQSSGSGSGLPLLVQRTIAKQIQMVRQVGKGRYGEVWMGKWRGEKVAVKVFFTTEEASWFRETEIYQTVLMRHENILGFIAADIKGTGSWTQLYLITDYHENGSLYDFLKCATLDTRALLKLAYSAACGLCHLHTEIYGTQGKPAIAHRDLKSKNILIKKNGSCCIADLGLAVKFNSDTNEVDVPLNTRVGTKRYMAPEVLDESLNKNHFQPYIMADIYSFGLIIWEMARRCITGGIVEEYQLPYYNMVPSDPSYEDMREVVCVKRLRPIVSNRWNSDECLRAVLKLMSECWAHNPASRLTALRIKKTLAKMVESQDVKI

Assays:
[1] = biological target: T1, ALK2 fused to three copies of the FLAG epitope (3xFLAG-ALK2) (UniProt Q04771); assay: co-IP; Huh7 cells transfected with tagged plasmids, harvested 24 h later, lysed in NET-buffer; immunoprecipitated with ANTI-FLAG M2 Affinity Gel, then immunoblot
T1 sequence: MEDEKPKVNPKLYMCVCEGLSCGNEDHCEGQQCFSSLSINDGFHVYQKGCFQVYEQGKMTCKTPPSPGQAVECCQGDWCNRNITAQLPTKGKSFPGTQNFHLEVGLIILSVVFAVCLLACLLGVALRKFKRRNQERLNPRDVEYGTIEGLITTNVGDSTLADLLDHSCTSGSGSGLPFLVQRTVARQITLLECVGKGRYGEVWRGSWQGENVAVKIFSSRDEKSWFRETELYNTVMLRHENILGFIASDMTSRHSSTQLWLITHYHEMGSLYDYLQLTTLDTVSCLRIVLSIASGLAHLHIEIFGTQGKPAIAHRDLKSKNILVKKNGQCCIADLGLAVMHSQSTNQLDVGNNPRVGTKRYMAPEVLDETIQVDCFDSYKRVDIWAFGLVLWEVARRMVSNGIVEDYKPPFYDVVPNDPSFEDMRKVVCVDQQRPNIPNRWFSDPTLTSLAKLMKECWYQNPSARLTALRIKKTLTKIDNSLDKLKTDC

[2] = biological target: ALK3 fused to three copies of the FLAG epitope (3xFLAG-ALK3) (UniProt P36894); assay: as above

- binding [1]: no binding
- binding [2]: binds
B1: HFE fused to the cMyc epitope (HFE-cMyc) (protein, UniProt Q30201 23-348)
chain: RLLRSHSLHYLFMGASEQDLGLSLFEALGYVDDQLFVFYDHESRRVEPRTPWVSSRISSQMWLQLSQSLKGWDHMFTVDFWTIMENHNHSKESHTLQVILGCEMQEDNSTEGYWKYGYDGQDHLEFCPDTLDWRAAEPRAWPTKLEWERHKIRARQNRAYLERDCPAQLQQLLELGRGVLDQQVPPLVKVTHHVTSSVTTLRCRALNYYPQNITMKWLKDKQPMDAKEFEPKDVLPNGDGTYQGWITLAVPPGEEQRYTCQVEHPGLDQPLIVIWEPSPSGTLVIGVISGIAVFVVILFIGILFIILRKRQGSRGAMGHYVLAERE
